Some of these results come from one statement about several compounds together. Where no end group is shown, it is not given here.
Tests used:
Type in all cases: physicochemical
[1] = Rheological properties of pH adjusted peptide hydrogels after DMEM treatment; details: storage modulus at 1 rad/sec
[2] = Rheological properties of pH adjusted peptide solutions; details: for pH up to which the rheological property of solutions increases with pH adjustment: PuraMatrix 2.5% solution, IEIK13 1.5% solution, storage modulus at 1 rad/sec
Method: Based on the visual observation of the effect of pH level on the properties of the peptide solutions, the effect on the rheological properties of the peptide solutions after adjusting their pH level to 3.4 (PuraMatrix® (SEQ ID NO:1) and KLD12 (SEQ ID NO:3)) or 3.7 (IEIK13 (SEQ ID NO:2)) was evaluated. If the pH levels of peptide solutions are higher than 3.5 (PuraMatrix® (SEQ ID NO:1) and KLD12 (SEQ ID NO:3)) or 3.7 (IEIK13 (SEQ ID NO:2)), the peptide solution began phase separation becoming cloudy. The rheological properties of PuraMatrix® (SEQ ID NO:1), KLD12 (SEQ ID NO:3) and IEIK13 (SEQ ID NO:2) solutions were higher at pH 3.4. The results are shown in FIG. 2 for KLD12 (SEQ ID NO:3) 1%, FIG. 3 for IEIK13 (SEQ ID NO:2) 1%, and FIGS. 4-5 for PuraMatrix® (SEQ ID NO:1) 1% and 2.5%, respectively. Stress sweep tests were performed at 10 rad/s. Frequency sweep tests were performed at 1 Pa.
Based on the results of the effect on the rheological properties of the peptide solutions after adjusting their pH level to 3.4 (PuraMatrix® (SEQ ID NO:1) and KLD12 (SEQ ID NO:3)) or 3.7 (IEIK13 (SEQ ID NO:2)), the effect on the rheological properties of the peptide solutions at various pH levels was evaluated. […] The rheological properties of peptides were evaluated at various concentrations using a rheometer (DHR-1, TA Instruments) with 20 mm plates. The results are shown in FIG. 6A for PuraMatrix® (SEQ ID NO:1) 2.5% solution and FIG. 6B for IEIK13 (SEQ ID NO:2) 1.5% solution, respectively. Frequency sweep tests were performed from 1 rad/sec to 10 rad/sec at 1 Pa and the storage modulus at 1 rad/sec was selected for data.

[3] = pH and appearance of 2.5% peptide solutions after adding 0.1 N NaOH; details: 0.1 N NaOH added to 2.5% peptide solutions
Method: To adjust the pH level of the peptide solutions by way of example, 0.1 N NaOH was added to 2 mL of 2.5% peptide solutions and their pH and appearance were measured.

## Arg-Ala-Asp-Ala-Arg-Ala-Asp-Ala-Arg-Ala-Asp-Ala-Arg-Ala-Asp-Ala [PuraMatrix ®]
[1]
  pH up to which the rheological property of hydrogels after DMEM treatment increases with pH adjustment: up to 3.4
[2]
  pH level above which the peptide solution began phase separation becoming cloudy: higher than 3.5
  pH up to which the rheological property of solutions increases with pH adjustment: up to 3.4
[3]
  pH increase that did not change the clear color, while apparent stiffness increased: ≤ 3.5

## Ile-Glu-Ile-Lys-Ile-Glu-Ile-Lys-Ile-Glu-Ile-Lys-Ile [IEIK13]
[1]
  pH up to which the rheological property of hydrogels after DMEM treatment increases with pH adjustment: up to 3.4
[2]
  pH up to which the rheological property of solutions increases with pH adjustment: up to 3.4
[3]
  pH increase that did not change the clear color, while apparent stiffness increased: ≤ 3.5

## KLDLKLDLKLDL [KLD12]
[2]
  pH level above which the peptide solution began phase separation becoming cloudy: higher than 3.5
[3]
  pH increase that did not change the clear color, while apparent stiffness increased: ≤ 3.5
